Assay results published in paper PMC8372404 (Frontiers in Neuroscience, 2021).

Target: [3H]-LCGA-17 binding site in rat brain membranes (putative α2δ)
Experiment: [3H]-LCGA-17 radioligand competition binding assay
Details: competition of [3H]-LCGA-17 (16 nM) binding, Table S1

For `O=C(CCCN1CCC(O)(c2ccc(Cl)cc2)CC1)c1ccc(F)cc1` [Haloperidol], the IC50 was over 100 µM.
